# Experimental data: patent US10889551B2, “Biemamides and related scaffolds as inhibitors of transforming growth factor-beta signaling” (Wisconsin Alumni Research Foundation, priority 2018, dated 2021)
# Some results were stated once for a whole list of compounds, not compound by compound.
# Tests used:
# NMuMG epithelial cells = assay: TGF-β induced EMT in NMuMG cell line (imaging assay); format: cell-based, mouse; details: 50 pM TGF-β, 72 h, nine concentrations 160-0.625 nM (FIG. 3C: 160 nM compound 1)
# Protocol: Mouse mammary epithelial cell line NMuMG was purchased from American Tissue Culture Collection (ATCC, Manassas, Va.), and NMuMG were cultured as per ATCC recommendations. Imaging assay: Cells were plated in glass bottomed 96 well imaging plates, at a density of 1,000 cells per well, and were allowed to attach overnight. Cells (with exception of 3 control wells) were treated with 50 pm TGF-β. Along with the TGF-β test compounds 1-5 were added in at various doses, and a set of wells was treated with a known TGF-β inhibitor SB431542 at 1 μM.
# In the absence of TGF-β, NMuMG cells form an epithelial shape; incubation with 50 pM TGF-β for 72 h induces a more fibroblast-like, spindle shaped morphology indicative of mesenchymal cells (FIGS. 3A-3D). […] Nine concentrations (160-0.625 nM) of compounds 1-5 were tested for their ability to impact TGF-β signaling in NMuMG cells.
# C. elegans = C. elegans assay (development and body length); format: in vivo; details: highest concentration 10 μM, 72 hours
# Protocol: Synchronized cultures of C. elegans were obtained using the following procedure: a mixed population of worms containing many gravid adults was washed off of two 10 cm NGM plates using distilled water. C. elegans were pelleted at 1000 g in a 15 mL conical tube and the supernatant was discarded. A mix of 3 mL distilled water, 1 mL bleach, and 1 mL 1 M NaOH was added. The tube was inverted for several minutes until it could be observed that the gravid adults had released their eggs. The eggs were pelleted at 1000 g, washed three times with distilled water and suspended in 10 mL of M9 (3.0 g KH2PO4, 6.0 g Na2HPO4, 0.5 g NaCl, 1.0 g NH4Cl into 1 L distilled water). The egg suspension was rotated overnight in a 50 mL conical tube during which the embryos hatched and arrested at the L1 stage. The C. elegans were washed twice and diluted with M9 to reach an approximate concentration of 20 worms/10 μL. Each well in a 96-well plate was prepared by adding 10 μL worm suspension, 0.5 μg OP50 E. coli, 1 μL DMSO (control) or 1 μL DMSO with compounds, and brought to a final volume of 100 μL with M9 plus cholesterol (5 μg/mL). The plates were incubated in a humidified box at 23° C. for 72 hours. To immobilize worms to measure body length the worms were killed by immersing the 96-well plate in a 70° C. water bath for several minutes. Each experiment was performed in triplicate within each plate.
# In C. elegans, two TGF-β-related pathways regulating dauer formation or body length have been identified, the Dauer pathway and the Sma/Mab pathway (Savage-Dunn, C. TGF-β signaling (Sep. 9, 2005), WormBook, ed. The C. elegans Research Community, WormBook, doi/10.1895/wormbook.1.22.1, http://www.wormbook.org.). C. elegans use TGF-β related signaling to regulate dauer formation. In addition to the dauer/TGF-β pathway, a second TGF-β related pathway Sma/Mab has been identified in C. elegans(Padgett, R. W.; Das, P.; Krishna, S. Bioessays 1998, 20, 382-390). Mutations in this pathway are characterized by small body size (Sma) and male tail defects (Mab). These two homologous pathways are genetically distinct, utilizing different ligands, type I receptors, and Smads. Only the type II receptor DAF-4 is shared between the two. Therefore, the compounds of the present technology may inhibit TGF-β signaling through the Dauer or Sma/Mab pathways individually or in tandem.
# All C. elegans were microscopically imaged, and body length assessments were carried out (FIGS. 4 and 5A-5E). C. elegans subjected only to solvent (control) had grown to adulthood, as evidenced by the onset of egg production as well as attainment of a typical adult size. […] Unlike the in vitro system, no good TGF-β inhibitory positive controls were available for C. elegans studies. However, at reduced biemamide A-E (1-5) concentrations, a dose-dependent effect on development and body size regulation was clearly observed.
Substance,inhibition of TGF-β-induced EMT (cell morphology) (NMuMG epithelial cells),C. elegans development and body size (C. elegans),inhibition of TGF-β-induced EMT (cell morphology) (NMuMG epithelial cells; listed as compound 1)
Biemamide B [Compound 2],effectively inhibited EMT induction,clearly displayed signs of late development and small body type individuals were easily detected,
Biemamide C [Compound 3],effectively inhibited EMT induction,clearly displayed signs of late development and small body type individuals were easily detected,
Biemamide A [Compound 1],,clearly displayed signs of late development and small body type individuals were easily detected,effectively inhibited EMT induction
Biemamide E [Compound 5],effectively inhibited EMT induction,clearly displayed signs of late development and small body type individuals were easily detected,
Biemamide D [Compound 4],effectively inhibited EMT induction,clearly displayed signs of late development and small body type individuals were easily detected,
